This note sets out measurements from US20120219503A1 (GENE TECHNO SCIENCE, published 2012).

This test deals with T1, hOPN5-BSA (also: conjugated to BSA, coupling site not given here).
T1 construct: RGD-containing synthetic peptide coupled to the carrier BSA and coated on ELISA or adhesion plates
T1 peptide: CVDTYDGRGDSVVYGLRS
Put plainly: ELISA, hOPN5-BSA coated on the plate. How it is done: Binding of Ch33E10 and Hu33E10-VH1/VL6 IgG1/κ antibodies to hOPN5-BSA was examined by ELISA. As an antigen, synthetic oligopeptide ([…] provided by Gene Techno Science) conjugated to bovine serum albumin (hOPN5-BSA) was used. In a typical experiment, an ELISA plate was coated with 100 μl/well of 1 μg/ml hOPN5-BSA in 0.2 M Na₂CO₃ buffer (pH 9.4) overnight at 4° C., washed with Wash Buffer, and blocked with 300 μl/well of Blocking Buffer for 1 hr at room temperature. After washing with Wash Buffer, samples appropriately diluted in ELISA Buffer were applied at 100 μl/well in the ELISA plate. After incubating the ELISA plate overnight at 4° C. and washing with Wash Buffer, bound antibodies were detected using 100 μl/well of 1/2,000-diluted HRP-conjugated goat anti-human γ chain polyclonal antibody (SouthernBiotech). After incubating for 1 hr at room temperature and washing with Wash Buffer, color development was performed by adding 100 μl/well of ABTS substrate and stopped with 100 μl/well of 2% oxalic acid. Absorbance was read at 405 nm.
Binding of Hu33E10-VH5/VL6, Hu33E10-VH7/VL6 and Hu33E10-VH7.8/VL6 antibodies to hOPN5-BSA was compared to that of Ch33E10 by ELISA as described in Section 5. […] In repeated experiments, Hu33E10-VH7/VL6 and Hu33E10-VH7.8/VL6 behaved similarly to each other for binding to hOPN5-BSA.

No constants are given. Whether binding was seen depends on the method and setting. Some results given as binding are weak or reduced against the parent protein; the word gives no strength.

B1: Hu33E10-VH5/VL6 IgG1/κ antibody (antibody, V domains shown)
VH: EVQLVESGGGLVQPGGSLRLSCAASGFTFTDYYMIWVRQAPGKGLEWLGFIRNKANGYTTEYSASVKGRFTISRDNAKNILYLQMNSLRAEDTAVYYCARGAYWGQGTMVTVSS
VL: DIVMTQSPLSLPVTPGEPASISCRSSQSIVHSNGNTYLEWYLQKPGQSPQLLIYRVSNRFSGVPDRFSGSGSGTDFTLKISRVEAEDVGVYYCFQGSFVPWTFGQGTKVEIK
B1: the binding result is given as “binds”.
